Test results taken from article doi:10.1101/197848.
These are yes or no findings as the source states them, for the method shown. Some binding calls cover weakened binding; strength is not graded here.

T1: yeast Scc1 (subunit of the purified tetramers) (S. cerevisiae) (UniProt Q12158)
T1 sequence: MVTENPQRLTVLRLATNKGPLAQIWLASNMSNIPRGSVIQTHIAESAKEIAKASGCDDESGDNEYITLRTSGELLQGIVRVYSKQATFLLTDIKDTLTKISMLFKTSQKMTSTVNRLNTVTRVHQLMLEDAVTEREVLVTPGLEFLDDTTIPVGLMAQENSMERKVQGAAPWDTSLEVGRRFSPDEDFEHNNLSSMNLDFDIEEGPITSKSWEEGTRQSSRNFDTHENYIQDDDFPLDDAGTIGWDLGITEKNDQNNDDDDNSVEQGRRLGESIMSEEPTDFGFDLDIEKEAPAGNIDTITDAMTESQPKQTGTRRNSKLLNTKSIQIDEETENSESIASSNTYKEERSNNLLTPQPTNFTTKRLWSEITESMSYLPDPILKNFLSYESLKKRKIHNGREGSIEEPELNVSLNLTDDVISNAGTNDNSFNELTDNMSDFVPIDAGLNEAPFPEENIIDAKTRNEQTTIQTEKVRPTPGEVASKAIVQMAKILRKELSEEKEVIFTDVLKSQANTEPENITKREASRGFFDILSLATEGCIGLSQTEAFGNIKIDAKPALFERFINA

T2: yeast smc3AAA (Smc3 R665A K668A R669A, subunit of the purified DDAAA mutant tetramer) (S. cerevisiae) (UniProt P47037)
T2 sequence: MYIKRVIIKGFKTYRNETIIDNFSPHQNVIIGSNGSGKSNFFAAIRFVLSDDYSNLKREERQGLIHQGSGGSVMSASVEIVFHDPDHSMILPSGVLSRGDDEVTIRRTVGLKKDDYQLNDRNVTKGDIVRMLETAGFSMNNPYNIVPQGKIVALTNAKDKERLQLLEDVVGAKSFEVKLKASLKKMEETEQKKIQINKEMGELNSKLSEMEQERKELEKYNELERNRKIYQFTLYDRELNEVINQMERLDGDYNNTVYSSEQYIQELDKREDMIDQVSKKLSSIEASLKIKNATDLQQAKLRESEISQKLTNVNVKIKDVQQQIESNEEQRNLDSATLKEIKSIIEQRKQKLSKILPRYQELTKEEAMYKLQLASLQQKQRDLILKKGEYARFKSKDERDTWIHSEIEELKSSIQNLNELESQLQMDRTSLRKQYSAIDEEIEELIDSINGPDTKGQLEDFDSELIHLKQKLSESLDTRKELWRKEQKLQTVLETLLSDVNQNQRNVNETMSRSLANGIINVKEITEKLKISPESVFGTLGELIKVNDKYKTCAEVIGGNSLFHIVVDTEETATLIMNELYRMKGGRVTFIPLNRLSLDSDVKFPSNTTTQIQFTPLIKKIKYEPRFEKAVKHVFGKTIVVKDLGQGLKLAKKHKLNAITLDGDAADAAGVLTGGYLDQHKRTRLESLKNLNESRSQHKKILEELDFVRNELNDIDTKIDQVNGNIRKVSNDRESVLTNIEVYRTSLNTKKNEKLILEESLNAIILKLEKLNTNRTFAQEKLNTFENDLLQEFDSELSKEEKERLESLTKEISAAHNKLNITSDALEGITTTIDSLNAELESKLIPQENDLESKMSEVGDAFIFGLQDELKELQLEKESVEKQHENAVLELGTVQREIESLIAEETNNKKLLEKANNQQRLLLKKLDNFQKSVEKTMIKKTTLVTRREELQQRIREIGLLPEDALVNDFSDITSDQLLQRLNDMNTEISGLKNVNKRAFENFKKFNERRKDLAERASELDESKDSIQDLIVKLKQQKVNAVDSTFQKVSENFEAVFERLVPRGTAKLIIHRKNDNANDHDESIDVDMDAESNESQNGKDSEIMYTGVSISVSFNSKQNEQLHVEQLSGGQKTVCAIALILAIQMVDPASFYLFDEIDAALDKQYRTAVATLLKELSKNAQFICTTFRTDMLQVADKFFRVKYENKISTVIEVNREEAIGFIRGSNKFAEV


What was measured:
[1] = biological target: T1, yeast Scc1 (subunit of the purified tetramers) (S. cerevisiae); assay: co-purification
[2] = biological target: T2, yeast smc3AAA (Smc3 R665A K668A R669A, subunit of the purified DDAAA mutant tetramer) (S. cerevisiae); assay: co-purification

Binder	binding [1]	binding [2]
yeast Scc3 (subunit of the purified tetramers) (protein, UniProt P40541 1-1150) MTAVRRSTRIRTKSQVIEEDYDDEQNTSAQHVESDKITAKTQHEEEEEQDTGESEESSSEDDYEDQDDDDYVDTATAKRKSRKRKPKSASNTSSKRQKKKPTSAQKSAVSHAPAYHRSKKDQDQYLEIAKDFQPTELFDILSTSEDVSIEELLREWLETYSENRDKFLQEFINLLLNCCGSVARVEDHDVHSNESSNETIGEIQLLFQRQKLHEFYLLISKENKKRKNFKMGPLYQNFAEFMTKLLEVANDLQLLYVESDEDDTQIVTGNLVLDLLTWLSSFSVCKIRCFRYISTLTLYLFQDYLTQQAVNLEKNYLAKLSKQLSLEEKKKRPNNKTLEKLESTIAETQGSKVVIDSIIDNIVKLCFVHRYKDVSDLIRSESMLHLSIWIKNYPEYFLKVTFLKYFGWLLSDNSVSVRLQVTKILPHLIIQNHNSKSTDNSAIRQVFERFKTKILEVAIRDVNLDVRIHSIQVLTEASSLGYLDDSEILIISSLMFDEEFDPFKTSSFNKRSKFLSTVAKFLARVIKEKFDEFIKTHEDLPKEVDGLEVGPVVQVGIFIKILNDSLIYHLKDCAEVDSRTKIRMLTQAAEFLSPYISTHLKTICNLLISDTESNELIQKLQNSANNNSDDEDVDDEELDITPLFPIDRNSTILYLNVFHGLCAGANNPKIQTKDSVKEIVLPLFYDLLNAASIESADILCPLLESFITFSLDDWISIGYETELKKITDKTIKAFMDSTIGNSKVDMKYDIFAKFIHHIHHFEKKELQEKFLNQIATLKIHLKKFLQEKMDPNNSRDDYKDLTCSLYELYINKLTILGRDYPIEVDEELLQLFLNNFVSRIPIMFQDFDDSTAQEINFKMLVLLATWNLEKWREIIEKVRDYENSISKDLRSVWKPIAAIIGRLNTLVISLAATNETFENINSLFYLKWSACTSLMDIIVAIKIFELKLPADATTWRYSMSEQFPFYLHDNASKVLLKIFLYLESLFAKQVDVQLERVADEDANLNDLPETGFFENIETEFLLFTVKLKGLMKLNILDERFASRVALNKEKLGPLFKKIVDDTIMENPEPNKKNIQKAKSNQTQREKAPLQPNSERETDHANTENNDPDIPMTIDLEPIEESSQNNSELAPIEEHPTVVDAIDNSDEITQD	binds	
yeast smc1DD (Smc1 K554D K661D, subunit of the purified DDAAA mutant tetramer) (protein, UniProt P32908 1-1225) MGRLVGLELSNFKSYRGVTKVGFGESNFTSIIGPNGSGKSNMMDAISFVLGVRSNHLRSNILKDLIYRGVLNDENSDDYDNEGAASSNPQSAYVKAFYQKGNKLVELMRIISRNGDTSYKIDGKTVSYKDYSIFLENENILIKAKNFLVFQGDVEQIAAQSPVELSRMFEEVSGSIQYKKEYEELKEKIEKLSKSATESIKNRRRIHGELKTYKEGINKNEEYRKQLDKKNELQKFQALWQLYHLEQQKEELTDKLSALNSEISSLKGKINNEMKSLQRSKSSFVKESAVISKQKSKLDYIFKDKEKLVSDLRLIKVPQQAAGKRISHIEKRIESLQKDLQRQKTYVERFETQLKVVTRSKEAFEEEIKQSARNYDKFKLNENDLKTYNCLHEKYLTEGGSILEEKIAVLNNDKREIQEELERFNKRADISKRRITEELSITGEKLDTQLNDLRVSLNEKNALHTERLHELKKLQSDIESANNQEYDLNFKLRETLVKIDDLSANQRETMKERKLRENIAMLKRFFPGVKGLVHDLCHPKKEKYGLAVSTILGDNFDSVIVENLTVAQECIAFLKKQRAGTASFIPLDTIETELPTLSLPDSQDYILSINAIDYEPEYEKAMQYVCGDSIICNTLNIAKDLKWKKGIRGKLVTIEGALIHDAGLMTGGISGDANNRWDKEEYQSLMSLKDKLLIQIDELSNGQRSNSIRAREVENSVSLLNSDIANLRTQVTQQKRSLDENRLEIKYHNDLIEKEIQPKITELKKKLDDLENTKDNLVKEKEALQNNIFKEFTSKIGFTIKEYENHSGELMRQQSKELQQLQKQILTVENKLQFETDRLSTTQRRYEKAQKDLENAQVEMKSLEEQEYAIEMKIGSIESKLEEHKNHLDELQKKFVTKQSELNSSEDILEDMNSNLQVLKRERDGIKEDIEKFDLERVTALKNCKISNINIPISSETTIDDLPISSTDNEAITISNSIDINYKGLPKKYKENNTDSARKELEQKIHEVEEILNELQPNARALERYDEAEGRFEVINNETEQLKAEEKKILNQFLKIKKKRKELFEKTFDYVSDHLDAIYRELTKNPNSNVELAGGNASLTIEDEDEPFNAGIKYHATPPLKRFKDMEYLSGGEKTVAALALLFAINSYQPSPFFVLDEVDAALDITNVQRIAAYIRRHRNPDLQFIVISLKNTMFEKSDALVGVYRQQQENSSKIITLDLSNYAE		binds
